Laboratory results from PubChem BioAssay AID2551 (National Center for Advancing Translational Sciences (NCATS), 2010).
The campaign covered roughly 310,000 compounds. About 17,000 (5.5%) were called active. Inconclusive means that the source gave no clear call. Such entries were picked first, then a sample of the others. The call rests on the fitted dose curve; in most records, active means well fitted inhibition curve with a large enough effect; inconclusive means small, poorly fitted or top-dose-only effect, or effect the other way; inactive means no such curve, though single readings can be large or run the other way. Potencies of inconclusive entries are doubtful fits and often do not repeat.

Sequences of proteins named here, by UniProt entry; tags and fusion partners are left off. A change or cut given only in a name is not applied to a line headed by its entry.
UniProt P51450: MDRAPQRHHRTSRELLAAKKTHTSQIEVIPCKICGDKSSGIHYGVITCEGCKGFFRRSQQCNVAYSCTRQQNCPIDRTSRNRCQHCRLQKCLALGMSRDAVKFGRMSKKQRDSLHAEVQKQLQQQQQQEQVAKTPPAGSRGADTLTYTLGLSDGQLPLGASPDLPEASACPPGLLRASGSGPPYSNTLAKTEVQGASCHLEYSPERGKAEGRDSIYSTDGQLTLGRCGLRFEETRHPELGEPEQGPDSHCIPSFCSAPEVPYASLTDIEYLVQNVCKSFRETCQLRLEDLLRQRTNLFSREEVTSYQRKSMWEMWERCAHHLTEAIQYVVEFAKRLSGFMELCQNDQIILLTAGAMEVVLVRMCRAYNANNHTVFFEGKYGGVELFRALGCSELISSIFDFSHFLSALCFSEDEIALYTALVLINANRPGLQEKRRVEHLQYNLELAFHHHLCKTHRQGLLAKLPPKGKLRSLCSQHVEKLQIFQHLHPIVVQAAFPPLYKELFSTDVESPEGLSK

Target: Nuclear receptor ROR-gamma (Mus musculus) (UniProt P51450)
Test: qHTS for inhibitors of ROR gamma transcriptional activity; further: nearly all actives have a fitted effect of over 60% in size
Settings: Drosophila S2 Gal4-RORgamma UAS-luciferase reporter, 20 h; series mostly up to 53.6 µM
Description: NIH Molecular Libraries Probe Production Network [MLPCN] NIH Chemical Genomics Center [NCGC] MLPCN Grant: R03 DA026211-01 Assay Provider: Dan Littman, New York University Assay Overview: The retinoic acid-related orphan receptor (ROR) gamma is a transcription factor that has a central role in the differentiation of Th17 cells, a subset of T helper cells that secrete the inflammatory cytokines IL-17, IL-17F, and IL-22. Th17 cells have been implicated in graft versus host disease, autoimmune disease and asthma. ROR gamma is induced in naive T helper cells in the presence of TGF-beta combined with IL-6, IL-21, or IL-23, and thereafter directs the expression of the Th17 lineage cytokines. To study the mechanism of action of ROR gamma, an insect cell-based assay was screened. This Drosophila Schneider cell line was stably transfected with two vectors: a gene expressing a fusion of the Gal4 DNA binding domain and ROR gamma transactivation domain under the control of the metallothionine promoter and a Photinus luciferase reporter regulated by the Gal4 binding site enhancer, UAS. […] Small molecule inhibitors of ROR gamma activity are detected by a decrease in luciferase reporter activity.
Assay Protocol Summary: For screening, 600 cells in 4 uL/well were dispensed into white solid 1536-well plates (Grenier) using a solenoid-based dispenser. Following transfer of 23 nL compound or DMSO vehicle by a pin tool, the plates were incubated 1 hr at ambient temperature, and 1 uL/well copper sulfate (700 uM final concentration) was added. The plates were centrifuged 15 s at 1000 RPM and incubated 20 hr at ambient temperature. After addition of 1.5 uL Photinus luciferase detection reagent, the plates were incubated 10 min at ambient temperature and then read by an ViewLux (Perkin Elmer) to detect luminescence. Keywords: NIH Roadmap, MLPCN, MLI, MLSMR, qHTS, NCGC, qHTS, nuclear hormone receptor, retinoic acid-related orphan receptor, ROR gamma
Potency means the concentration at half of the fitted maximal effect.

SMILES | Potency
COC(=O)Cc1c(C)nc2nc(-c3ccc(C)cc3)[nH]n2c1=O | inconclusive: 11.2 µM [inhibitor, partial curve]
CN1CCN(C2=C(Cl)C(=O)N(c3ccc(Cl)c(Cl)c3)C2=O)CC1 | inconclusive: 25.1 µM [inhibitor, single point]
COc1ccc(NC(=S)N(CCc2c(C)[nH]c3ccc(C)cc23)Cc2cccs2)cc1 | inconclusive: 22.4 µM [inhibitor, single point]
C/C=C1/C2C=C(C)CC1(N)c1ccc(=O)[nH]c1C2 (configuration not stated) | inactive
Cc1[nH]c2ccc(F)cc2c1CCN(Cc1ccncc1)C(=S)Nc1ccc(F)cc1 | inconclusive: 11.2 µM [activator, partial curve]
CCOc1ccc(-c2nc(CSCC(=O)NCCN3CCOCC3)c(C)o2)cc1 | inconclusive: 35.5 µM [inhibitor, single point]
CC(C)OC(=O)CSc1nc2ccccc2s1 | inactive
CCNc1nc(NC(C)(C)C)nc(SC(C(C)=O)C(C)=O)n1 | inconclusive: 15.8 µM [inhibitor, single point]
O=[N+]([O-])c1ccc(COc2cccc(CNc3ccc(Br)cc3)c2)cc1 | inconclusive: 15.8 µM [activator, partial curve]
Cc1ccc(/C=C/C(=O)Nc2ncc(C)s2)o1 | inactive
COc1ccc(C2=NOC(COc3ccc4c(C)cc(=O)oc4c3)C2)c(OC)c1 (configuration not stated) | inconclusive: 7.94 µM [activator, partial curve, poor fit]
S=C(NCCC1=CCCCC1)Nc1ccccc1 | active: 1.78 µM
COc1ccc(S(=O)(=O)Cc2ccc(C(=O)NC3CCC(C)CC3)o2)cc1 (configuration not stated) | inactive
CCN(CC)CCNC(=O)c1ccc(NC(=O)c2ccccc2-c2ccc(C(F)(F)F)cc2)cc1 | inconclusive: 35.5 µM [inhibitor, single point]
COC(=O)CSc1ccc2c(N)c(C(=O)OC)sc2c1 | inconclusive: 22.4 µM [inhibitor, single point]
COc1ccccc1NC(=O)C1C2C=CC(C2)C1C(=O)NCc1cccnc1 (configuration not stated) | inactive
O=C(Nc1ccccc1Br)c1ccc(OC(=S)N2CCOCC2)cc1 | inactive
CCCCNS(=O)(=O)c1ccc2nc(SCC(=O)Nc3ccccc3Cl)[nH]c2c1 | inconclusive: 20 µM [activator, single point]
Cc1nn(-c2ccc(F)cc2)c(C)c1NS(=O)(=O)c1ccc2ccccc2c1 | inconclusive: 22.4 µM [activator, single point]
CCOC(=O)c1c(C)[nH]c(C)c1S(=O)(=O)NC(CC)CN1CCOCC1 (configuration not stated) | inactive
Cc1cc(C)c2nc(NC(=O)c3cc(C)on3)sc2c1 | active: 4.47 µM
CC(C)Cc1ccc(CN2CCCC(NC(=O)c3ccnn3C)C2)cc1 (configuration not stated) | inconclusive: 15.8 µM [activator, single point]
Cc1c(C(=O)OCC(C)C)[nH]c2c1C(=O)CC(c1cccs1)C2 (configuration not stated) | inconclusive: 22.4 µM [inhibitor, single point]
Cc1ccc(-c2cc(-c3cccs3)[nH]n2)c(O)c1 | active: 11.2 µM
Cc1cc(Nc2ccc3c(c2)OCCO3)c2cccc(C)c2n1 | inactive
CC(=O)Nc1nc2c(ccc3ccccc32)s1 | inconclusive: 0.501 µM [inhibitor, single point]

SMILES | Potency
O=C(COc1cccc2c1CCN(Cc1ccccc1)C2=O)NCc1ccco1 | inconclusive: 14.1 µM [activator, single point]
O=C(Nc1cccc(-c2cn3ccccc3n2)c1)c1ccccc1 | inactive
O=C(Nc1ccc(-c2nc3ccccc3[nH]2)cc1)c1ccc2c(c1)OCO2 | inconclusive: 35.5 µM [inhibitor, single point]
Cc1ccc2c(c1)Oc1ccc(NC(=O)CCl)cc1C(=O)N2 | active: 10 µM
Cc1nc(C#N)c(NCc2ccc3c(c2)OCO3)o1 | inconclusive: 12.6 µM [activator, single point]
COc1cc(Nc2c3c(nc4ccccc24)CCCC3)cc(OC)c1OC | active: 11.2 µM
Cc1nn(CCC(=O)NNC(=S)Nc2ccccc2)c(C)c1Br | active: 0.316 µM
COc1ccc(OC)c2nc3c(cc12)CCC3 | active: 15.8 µM
O=C(NCCc1ccc(Cl)cc1)C1CCN(C(=O)c2sccc2-n2cccc2)CC1 | inconclusive: 14.1 µM [activator, single point]
O=C(Nc1ccccn1)c1onc2c1CCCC2 | active: 6.31 µM
O=C(N/N=C\c1ccc(Cl)s1)c1ccc(Cn2cccn2)o1 | active: 10 µM
CCn1nc(NS(=O)(=O)c2ccc(NC(C)=O)cc2)c2cc3cc(C)ccc3nc21 | inconclusive: 14.1 µM [activator, single point]
Nc1nccc(/C=C/c2c(F)cccc2Cl)n1 | inactive
Cc1cccc(OCCCCCN2CCOCC2)c1C | inconclusive: 0.398 µM [activator, single point]
O=C(CN(Cc1ccccc1)C(=O)CCC(=O)Nc1ccccn1)NCCc1ccccc1 | inactive
CN(C)c1ccc(/C=N/N2C(=S)SC(C)(C)C2N(O)C(=O)Nc2ccc([N+](=O)[O-])cc2)cc1 (configuration not stated) | active: 7.94 µM
CCOC(=O)C1=C(N)N(c2ccc(C)cc2)C2=C(C(=O)CCC2)C1c1cccs1 (configuration not stated) | inconclusive: 35.5 µM [activator, single point]
Clc1ccc(CON/C=N/c2ncnc3sccc23)c(Cl)c1 | inactive
O=C(c1cccs1)N1CCN(c2ccc([N+](=O)[O-])cc2F)CC1 | inconclusive: 31.6 µM [activator, single point]
CCN1CCN(Cc2cccc(Oc3ccc(Cl)cc3)c2)CC1 | inconclusive: 20 µM [inhibitor, single point]
COc1ccc(-c2csc(-c3cccs3)n2)cc1OC | inactive
CCCNC(=O)COC(=O)c1ccc(-c2ccccc2)cc1 | inconclusive: 12.6 µM [activator, single point]
CCCCCCCC1(C)NC(=O)NC1=O (configuration not stated) | inactive
COc1ccc(C(=O)C2CCCN(C(=O)c3cc(C(C)C)no3)C2)cc1F (configuration not stated) | inconclusive: 17.8 µM [activator, partial curve]
COc1ccc(-n2cnc3sc4c(c3c2=O)CCCC4)cc1 | inactive
CCCCN(CCCC)C(=O)CSc1nnc2n(C)c(=O)c3c4c(sc3n12)CCCC4 | inconclusive: 0.794 µM [inhibitor, full curve, poor fit]

SMILES | Potency
Cn1ccnc1C(=O)c1cc(SCC(=O)NCc2ccccc2)nc2ccccc12 | inactive
Cc1ccc(C(=O)N2CCOCC2)cc1S(=O)(=O)N1CCCCC1 | inactive
O=C(CCc1ccccc1)NC(c1cccs1)c1cc(Cl)c2cccnc2c1O (configuration not stated) | active: 0.631 µM
COc1ccc(CCC(=O)NCCNC(=O)CCc2ccc(OC)cc2)cc1 | inactive
COc1ccc(/C(C)=N/OC/C(O)=C(\C#N)c2nc3ccccc3[nH]2)cc1 | inconclusive: 11.2 µM [inhibitor, single point]
Cc1ccc(S(=O)(=O)N2CCN(C(=O)c3c(-c4ccccc4)noc3C)CC2)cc1C | inactive
C/C(=N\NC(=S)NC1CCCCC1)c1ccc(Cl)c(Cl)c1 | active: 1.41 µM
Cc1cccc(C(=O)Nc2ccccc2C(=O)OCc2c(C)noc2C)c1 | inactive
CN(C(=O)COC(=O)c1ccccc1C(=O)N(C)c1ccccc1)c1ccccc1 | inconclusive: 28.2 µM [inhibitor, single point]
CC(=O)Nc1cccc(OCC(=O)NCCC2=CCCCC2)c1 | inconclusive: 35.5 µM [activator, single point]
CCN(Cc1ccccc1)S(=O)(=O)c1ccc(C(=O)N(CCCN(C)C)c2nc3ccc(F)cc3s2)cc1 | inconclusive: 35.5 µM [inhibitor, single point]
COc1ccc2cc1Oc1ccc(cc1)CC1c3c(cc(OC)c4c3Oc3cc5c(cc3O4)CCNC5C2)CCN1C (configuration not stated) | active: 4.47 µM
CCCCCC(=O)Nc1ccc(Cc2ccncc2)cc1 | inconclusive: 8.91 µM [activator, partial curve]
COC(=O)c1ccc(Cn2c(O)c(N=NC(N)=S)c3ccccc32)o1 | active: 1.12 µM
Cc1nnnn1/C(=C\c1ccccc1)C(=O)OCC(=O)N(C)C1CCS(=O)(=O)C1 (configuration not stated) | active: 11.2 µM
C#CCNC(=O)C1=C[C@H](c2ccc(Br)cc2)C[C@H](OCc2ccc(CO)cc2)O1 | inconclusive: 35.5 µM [activator, single point]
Nc1nc(CN2CCN(c3cccc(Cl)c3)CC2)nc(N2CCCc3ccccc32)n1 | inactive
CCC(C)(C)c1ccc(OCCCC[n+]2ccccc2)c(C(C)(C)CC)c1 | inconclusive: 35.5 µM [inhibitor, single point]
CCCn1c(SCC(=O)Nc2nc3ccccc3s2)nc2c1c(=O)n(C)c(=O)n2C | inactive
Clc1ccccc1-c1ccc(/C=N/Nc2nncc(-c3ccccc3)n2)o1 | active: 1.41 µM
Cc1cc(C(=O)CSc2nc(N)cc(N)n2)c(C)n1-c1cccc(C(F)(F)F)c1 | inconclusive: 11.2 µM [activator, partial curve]
O=C(c1ccc(S(=O)(=O)Cc2ccccc2F)c([N+](=O)[O-])c1)N1CCCC1 | inactive
CCOC(=O)N1CCN(C(=S)NC2CCCCC2)CC1 | inactive
Cc1cc(=O)[nH]c(Nc2ccc(N(C)C)cc2)n1 | inactive
Cc1[nH]c2ccccc2c1C(C#N)(C#N)C1C(=O)c2ccccc2C1=O | inconclusive: 7.08 µM [inhibitor, partial curve]

5 compounds picked at random from the list so far, as already listed:
SMILES | Potency
CCCn1c(SCC(=O)Nc2nc3ccccc3s2)nc2c1c(=O)n(C)c(=O)n2C | inactive
CCC(C)(C)c1ccc(OCCCC[n+]2ccccc2)c(C(C)(C)CC)c1 | inconclusive: 35.5 µM [inhibitor, single point]
Clc1ccccc1-c1ccc(/C=N/Nc2nncc(-c3ccccc3)n2)o1 | active: 1.41 µM
CCN(Cc1ccccc1)S(=O)(=O)c1ccc(C(=O)N(CCCN(C)C)c2nc3ccc(F)cc3s2)cc1 | inconclusive: 35.5 µM [inhibitor, single point]
C#CCNC(=O)C1=C[C@H](c2ccc(Br)cc2)C[C@H](OCc2ccc(CO)cc2)O1 | inconclusive: 35.5 µM [activator, single point]
